Measured data: PubChem BioAssay AID1259254 (NCATS, 2017)
Aim: 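Gene knock-downs that lead to re-replication, shown by excess G2 DNA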 (primary screen). Cell system: human HCT116 colorectal cancer cells. Knock-down reagent: single siRNA against human genes. Duration: 3 days. Detection: 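Imaged Hoechst DNA stain sorts each cell into a cycle phase by DNA amount; per plate, G2 fraction set to 0% for non-targeting and 100% for GMNN siRNA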. Reading the numbers: G2 robust z-score and G2 cells, % of GMNN control: higher = more G2 cells, more excess DNA replication. Call rule: 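Active siRNAs have a G2 robust z of 5 or more median absolute deviations over the median, which in these data means about 38% or higher of GMNN control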.
This is one part, drawn at random, of about 59,000 reagents. Of all reagents, about 1,550 (2.6%) are marked active. 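G2 share is only a proxy for re-replication; each gene was hit by three separate siRNAs, and active genes were retested.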 The numbers tell different reagents against one gene apart. Not all columns of the deposit are shown. Reagent sequences are not shown. Not stated in the record: the amount of reagent.

ZIM3 #1 → G2 robust z-score = -0.0922; G2 cells, % of GMNN control = 2.32; Call = inactive
ZIM3 #2 → G2 robust z-score = -0.781; G2 cells, % of GMNN control = -2.53; Call = inactive
ZIM3 #3 → G2 robust z-score = 0.157; G2 cells, % of GMNN control = 4.07; Call = inactive
METTL8 #1 → G2 robust z-score = 0.128; G2 cells, % of GMNN control = 3.87; Call = inactive
METTL8 #2 → G2 robust z-score = 0.0544; G2 cells, % of GMNN control = 3.35; Call = inactive
METTL8 #3 → G2 robust z-score = 0.372; G2 cells, % of GMNN control = 5.58; Call = inactive

Reprinted from the entries so far (2 entries):
ZIM3 #1 → G2 robust z-score = -0.0922; G2 cells, % of GMNN control = 2.32; Call = inactive
ZIM3 #2 → G2 robust z-score = -0.781; G2 cells, % of GMNN control = -2.53; Call = inactive

More results:
PLA2G4F #1 → G2 robust z-score = 0.119; G2 cells, % of GMNN control = 3.81; Call = inactive
PLA2G4F #2 → G2 robust z-score = 0.031; G2 cells, % of GMNN control = 3.19; Call = inactive
PLA2G4F #3 → G2 robust z-score = -0.721; G2 cells, % of GMNN control = -2.1; Call = inactive
CMC2 #1 → G2 robust z-score = -0.398; G2 cells, % of GMNN control = 0.169; Call = inactive
CMC2 #2 → G2 robust z-score = -0.516; G2 cells, % of GMNN control = -0.661; Call = inactive
CMC2 #3 → G2 robust z-score = 0.818; G2 cells, % of GMNN control = 8.72; Call = inactive
